What all share (assay): affinity purification with mass spectrometry; 3×FLAG- or 13×myc-tagged bait purified from S. pombe cell extract on α-FLAG (M2) or α-myc (9E10) antibody cross-linked to Protein G Dynabeads, 4°C for 3 h, IP buffer (20 mM HEPES pH 7.5, 100 mM NaCl, 5 mM MgCl2, 1 mM EDTA, 10% glycerol, 0.25% Triton X-100, 0.5 mM DTT); LC-MS/MS; Red1-3×FLAG also from iss10Δ, rmn1Δ and Mtl1 knockdown cells

Chains of the proteins cited; added tags and fusions are not shown.
UniProt O60016: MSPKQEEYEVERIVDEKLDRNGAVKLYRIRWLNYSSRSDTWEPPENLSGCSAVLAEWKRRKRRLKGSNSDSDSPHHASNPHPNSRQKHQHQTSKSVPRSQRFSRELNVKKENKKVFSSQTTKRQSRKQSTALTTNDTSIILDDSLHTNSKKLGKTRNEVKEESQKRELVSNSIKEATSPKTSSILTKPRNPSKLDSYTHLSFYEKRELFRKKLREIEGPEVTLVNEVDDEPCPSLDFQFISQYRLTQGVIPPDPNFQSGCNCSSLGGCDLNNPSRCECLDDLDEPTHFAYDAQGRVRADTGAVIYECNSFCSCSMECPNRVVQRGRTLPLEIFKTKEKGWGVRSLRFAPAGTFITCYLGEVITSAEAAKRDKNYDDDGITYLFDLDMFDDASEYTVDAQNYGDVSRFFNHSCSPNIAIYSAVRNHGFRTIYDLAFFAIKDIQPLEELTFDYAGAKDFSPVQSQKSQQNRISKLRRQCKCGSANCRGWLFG

One assay addresses T1, Red1-3×FLAG (S. pombe) (UniProt Q9UTR8).
T1 sequence: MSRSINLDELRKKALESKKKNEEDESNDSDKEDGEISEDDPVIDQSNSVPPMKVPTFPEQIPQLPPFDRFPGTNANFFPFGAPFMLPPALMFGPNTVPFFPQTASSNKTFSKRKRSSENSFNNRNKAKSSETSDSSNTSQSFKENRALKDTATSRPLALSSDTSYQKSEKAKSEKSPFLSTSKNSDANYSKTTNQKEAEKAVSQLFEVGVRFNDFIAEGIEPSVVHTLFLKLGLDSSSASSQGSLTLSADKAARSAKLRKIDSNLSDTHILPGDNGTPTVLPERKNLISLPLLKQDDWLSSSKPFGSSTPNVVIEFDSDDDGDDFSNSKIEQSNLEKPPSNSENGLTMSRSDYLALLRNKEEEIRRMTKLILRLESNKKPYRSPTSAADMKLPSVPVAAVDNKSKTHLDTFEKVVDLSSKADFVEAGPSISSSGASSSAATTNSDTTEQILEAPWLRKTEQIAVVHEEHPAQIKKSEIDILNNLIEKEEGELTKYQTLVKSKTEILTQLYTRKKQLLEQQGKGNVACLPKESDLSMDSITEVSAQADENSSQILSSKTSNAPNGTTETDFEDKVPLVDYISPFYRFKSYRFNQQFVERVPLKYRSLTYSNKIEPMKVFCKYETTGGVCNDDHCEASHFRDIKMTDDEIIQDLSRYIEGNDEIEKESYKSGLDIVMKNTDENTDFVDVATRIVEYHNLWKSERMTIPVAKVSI

Assay [1] addresses T2, Red5-3×FLAG (S. pombe) (UniProt O74823).
T2 sequence: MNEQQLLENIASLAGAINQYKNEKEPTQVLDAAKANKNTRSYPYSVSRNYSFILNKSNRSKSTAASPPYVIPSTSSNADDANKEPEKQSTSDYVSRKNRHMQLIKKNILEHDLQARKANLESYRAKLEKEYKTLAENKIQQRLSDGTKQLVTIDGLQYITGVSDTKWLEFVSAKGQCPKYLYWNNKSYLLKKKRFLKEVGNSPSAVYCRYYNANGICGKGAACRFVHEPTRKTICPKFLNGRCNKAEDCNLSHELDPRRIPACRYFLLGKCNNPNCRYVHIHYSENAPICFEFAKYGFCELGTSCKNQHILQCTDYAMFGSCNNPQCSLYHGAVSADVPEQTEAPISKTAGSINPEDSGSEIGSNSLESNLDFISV

The next assay addresses T3, Rmn1-13×myc (S. pombe) (UniProt Q9USP9).
T3 sequence: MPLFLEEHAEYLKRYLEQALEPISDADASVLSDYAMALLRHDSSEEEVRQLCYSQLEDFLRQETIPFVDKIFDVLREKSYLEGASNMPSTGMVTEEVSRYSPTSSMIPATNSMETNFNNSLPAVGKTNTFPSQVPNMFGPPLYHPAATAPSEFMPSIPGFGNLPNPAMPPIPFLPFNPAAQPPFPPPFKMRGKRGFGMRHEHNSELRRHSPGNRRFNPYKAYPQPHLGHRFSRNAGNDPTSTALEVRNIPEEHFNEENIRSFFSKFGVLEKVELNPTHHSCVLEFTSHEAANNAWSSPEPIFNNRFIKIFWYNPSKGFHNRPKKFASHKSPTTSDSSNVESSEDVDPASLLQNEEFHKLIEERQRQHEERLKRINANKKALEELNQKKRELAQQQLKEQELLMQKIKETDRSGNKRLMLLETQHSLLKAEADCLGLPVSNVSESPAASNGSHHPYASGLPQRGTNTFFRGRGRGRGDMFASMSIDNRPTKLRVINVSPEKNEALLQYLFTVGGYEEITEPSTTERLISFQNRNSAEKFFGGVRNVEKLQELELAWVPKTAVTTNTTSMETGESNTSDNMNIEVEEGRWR

Assay [2] deals with T2, Red5-3×FLAG (S. pombe). This is another data set of the same source.

Read-outs that look alike come from different tables or passages of the source. These are yes or no findings as the source states them, for the method shown. Binding seen in cells or lysates may run through a third protein. Here binding means that the protein was enriched with, or labelled near, the bait; the list need not be complete. For part of these data: A no says only that the protein was not detected with the bait. Sequences can lack the tags named with a protein.

Take Clr4 (from UniProt O60016 1-490): the binding result with Red1-3×FLAG (S. pombe) and with Red5-3×FLAG (S. pombe) [1] was “no binding” each time.

B1: Pla1 (protein, UniProt Q10295 1-566)
chain: MTTKQWGITPPISTAPATEQENALNTALINELKNQNLFESPAESEKRVKVLDELQQITTEFVKKVSLAKHMNEKMANEAGGKIFTYGSYRLGVYGPGSDIDTLVVVPKHVSRDNFFQDLEPMLREREEVTDLAAVPDAYVPIIKFKFLGISIDLIFARLSVPRVPRDLELSDNNLLKGVEERCVLSLNGTRVTDQILQLVPNRAVFKHALRAIKFWAQRRAIYANVVGFPGGVAWAMMVARICQLYPNAVSSVIVAKFFRILHQWNWPQPILLKPIEDGPLQVRIWNPKLYPSDKAHRMPIITPAYPSMCATHNITLSTQTIILREMVRAGEIADQIMVKALPWSALFQKHDFFHRYKHYLTITAAAKTAEAQLKWAGLVESKLRHLVTRLELVDAIALAHPFNKGFDKVYNCSSEEEAQQVASGVTLEVAYESTDHEKLANDTVNEEKADNTESKADGSENGEKQIFPVYTTTCYIGLELEKKKGHPIKRLDISWPTQEFYELCKKWDKYDDTLMNVFIKNTKNTALPDEVFEPGEERPKATKKRSTADTAHSTEQLKRQKVSTA
Consider B1, for which the binding result with Rmn1-13×myc (S. pombe) is “binds”; with Red5-3×FLAG (S. pombe) [2], “no binding”.

B2: Pab2 (protein, UniProt O14327 1-166)
chain: MSDQDALDTQEKELLEMKERVAEMEAEAAKLRAMQEQLDNETEALRNDKESIDAQSVYVGNVDYSVTPEELQSHFASCGSVNRVTILCDKFTGHPKGFAYIEFSEPSLVPNALLLNGSMLHERPLKVTPKRTNVPGMSRGRGRGRGRGRGRGRGGYRGRARGFAPY
B2: the binding entry in the assay with Rmn1-13×myc (S. pombe) and with Red5-3×FLAG (S. pombe) [2] was “binds” in each case.

(Values after article PMC4024641.)
